Results published in paper PMC8816931.

Sequences of proteins named here, by UniProt entry; tags and fusion partners are left off. A change or cut given only in a name is not applied to a line headed by its entry.
UniProt A2AFI6: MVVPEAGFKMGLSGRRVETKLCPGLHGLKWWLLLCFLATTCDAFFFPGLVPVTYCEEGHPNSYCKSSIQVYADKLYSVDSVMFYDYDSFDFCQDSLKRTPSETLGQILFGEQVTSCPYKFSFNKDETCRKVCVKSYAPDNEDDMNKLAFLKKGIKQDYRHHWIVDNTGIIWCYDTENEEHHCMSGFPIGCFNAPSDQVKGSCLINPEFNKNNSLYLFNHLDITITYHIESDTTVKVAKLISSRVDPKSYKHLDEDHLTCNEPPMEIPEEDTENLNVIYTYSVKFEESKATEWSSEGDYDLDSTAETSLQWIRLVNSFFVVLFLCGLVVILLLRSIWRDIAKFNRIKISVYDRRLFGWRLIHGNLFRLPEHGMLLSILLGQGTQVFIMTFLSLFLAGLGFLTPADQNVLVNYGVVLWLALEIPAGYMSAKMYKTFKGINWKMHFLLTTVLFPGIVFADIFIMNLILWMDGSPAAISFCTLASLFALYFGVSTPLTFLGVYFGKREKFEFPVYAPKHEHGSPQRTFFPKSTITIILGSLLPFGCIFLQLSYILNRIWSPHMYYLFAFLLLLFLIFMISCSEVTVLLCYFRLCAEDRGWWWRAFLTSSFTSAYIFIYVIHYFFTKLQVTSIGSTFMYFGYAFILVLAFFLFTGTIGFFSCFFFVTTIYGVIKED

B1: MIB2 (enzyme, UniProt Q8R516 1-973)
chain: MDLDPHAGVQVGMRVVRGMDWKWGQQDGGEGGVGTVVELGRHGSPSTPDRTVVVQWDQGTRTNYRAGYQGAHDLLLYDNAQIGIRHPNIICDCCKKHGLRGMRWKCRVCFDYDLCTQCYMHNKHDLTHAFERYETSHSRPVTLSPRQGLPRIPLRGIFQGAKVVRGPDWEWGSQDGGEGKTGRVVDIRGWDVETGRSVASVTWADGTTNVYRVGHKGKVDLRCVGEAAGGFYYKEHLPKLGKPAELQRRVSADGQPFQRGDKVKCLLDTDVLRDMQEGHGGWNPRMAEFIGQMGTVHRITDRGDVRVQFNHETRWTFHPGALTKHNSFWVGDVVRVIGDLDTVKRLQAGHGEWTDDMAPALGRVGKVVKVFGDGNLRVAVGGQRWTFSPSCLVAYRPEEDANLDVAERARENKSAASVSVAGSLSVALDKLRTQKSDPEHPGRLVVEAALGNVARALDLLRRHPEQASYHPALVVDTKNQGRTALQVAAYLGQVELVRLLLQARASMDLPDDEGNTVLHYTAMGNQPEATRVLLSAGCAVDARNGTRSTALHVAVQRGFLEVVKILCERGCDVNLPDAHADTPLHSAISAGAGASSIVEVLTEVPGIDVTATNSQGFTLLHHASLKGHVLAVRKILARARQLVDAKKEDGFTALHLAALNNHREVAQVLIREGRCDVNVRNRKLQSPLHLAVQQAHLGLVPLLVDAGCSVNTEDEEGDTALHVALQRHQLLPLVADRAGGDPGPLQLLSRLQASGLPGCTELTVGAAVACFLALEGADVSYANHRGRSPLDLATEGRVLKALQGCAQRFRERQAGGGGGVPPGPRHVLSTPNTVTNLHVSGTAGPEAAECLVCSELALLILFSPCQHRTVCEECARRMKKCIRCQVVISKKLRPDGSEVVNAIQVPGPPRQLVEELQSRYRQMEERITCPICIDSHIRLVFQCGHGACAPCGAALNACPICRQPIRDRIQIFV
B2: GRAMD1A (protein, UniProt Q8VEF1 1-722)
chain: MFDTTPHSGRSSPSSSPSLRKRLQLLPPIRPPPASEPEPGTMVEKGSDSSSEKSGVSGTLSTQSLGSRNFIRNSKKMQSWYSMLCPTYKQRNEDFRKLFSKLPEAERLIVDYSCALQREILLQGRLYLSENWICFYSNIFRWETTISIQLKEVTCLKKEKTAKLIPNAIQICTESEKHFFTSFGARDRCFLLIFRLWQNALLEKTLSPRELWHLVHQCYGSELGLTSEDEDYVCPLQLNGLGSPKEVGDVIALSDISPSGAADHSQEPSPVGSRRGRVTPNLSRASSDADHGAEEDKEEQTDGLDASSSQTVTPVAEPLSSEPTPPDGPTSSLGPLDLLSREELLTDTSNSSSSTGEEGDLAALLPDLSGRLLINSVFHMGAERLQQMLFSDSPFLQGFLQQRKFTDVTLSPWSSDSKCHQRRVLTYTIPISNQLGPKSASVVETQTLFRRGPQAGGCVVDSEVLTQGIPYQDYFYTAHRYCILGLARNKARLRVSSEIRYRKQPWSLVKSLIEKNSWSGIEDYFHHLDRELAKAEKLSLEEGGKDTRGLLSGLRRRKRPLSWRGHRDGPQHPDPDPCTQTSMHTSGSLSSRFSEPSVDQGPGAGIPSALVLISIVLIVLIALNALLFYRLWSLERTAHTFESWHSLALAKGKFPQTATEWAEILALQKHFHSVEVHKWRQILRASVELLDEMKFSLEKLHQGITVPDPPLDTQPQPDDSFP

Biological target: Gm364 (mouse) (UniProt A2AFI6)
Assay: co-IP; 2.5 ug rabbit antibody coupled to protein A/G beads, lysate of 400 mouse oocytes, IP buffer (20 mM Tris-HCl pH 8.0, 10 mM EDTA, 1 mM EGTA, 150 mM NaCl, 0.05% Triton X-100, 0.05% Nonidet P-40), overnight at 4 °C, three washes, SDS-PAGE and western blot; rabbit IgG as control

Row | Binder | binding
1 | B1 | binds
2 | B2 | binds

No constants are given. Whether binding was seen depends on the method and setting. Binding seen in cells or lysates may run through a third protein. Binding calls can cover weak binding; strength is not graded here.
